Test results from patent US11649222B2, “Compounds” (UNIVERSITETET I OSLO, priority 2016, dated 2023).
Some of these results come from one statement about several compounds together.

Tested on: resistant gram-negative MBL-based bacteria
Experiment: MICx: adjuvant concentration giving carbapenem MIC ≤ 2 mg/L
Type: cell-based
Settings: with meropenem
Procedure: • Plate bacterial strain(s) on appropriate media: • Gram-negative bacteria with ESBLs or carbapenemases: green agar plates with 100 mg/L ampicillin • Gram-negative bacteria without β-lactamases: green agar plates • Gram-positive bacteria (Staphylococci and Enterococci): blood agar plates • Incubate o.n. at 37° C. […] (Should be used within 15 min of preparation). • Dilute the 0.5 McFarland suspension 1:100 into MH broth. […] Plate 10 μl of the dilution on MH agar plates (×2). Incubate o.n. at 37° C., count the colonies and calculate the final CFU/ml inoculum in the plate by multiplying the average number of colonies with 10000 and divide by 2. The final inoculum should be between 3-7×10^5 CFU/ml. • Add 50 μl of the prepared bacterial suspension to each well in the microtiter plate except negative growth control. Preparation of Compounds/Antibiotics • Calculate the desired concentration-range and volume of the compounds/antibiotics in the assay. […] Dilute the stock solution in MH broth. Make subsequent 2-fold dilutions in MH broth of the desired concentrations if a concentration range is to be tested (remember the extra dilution factor in the assay plate). Always include extra volume for pipetting. Take into consideration stock solutions that are made in buffers that have an effect on bacterial growth (e.g. DMSO).

SMILES	concentration range at which efficient as adjuvant
COC(=O)[C@@H](C)NC(=O)[C@@H](C)NC(=O)Cn1cc(CN(Cc2ccccn2)Cc2ccccn2)nn1 [Example 194, Methyl (2-(4-((bis(pyridin-2-ylmethyl)amino)methyl)1H-1,2,3-triazol-1-yl)acetyl)-D-alanyl-D-alaninate, reference compound]	100 to 150 µM
O=C(NCCc1ccc(-n2cc(CN(Cc3ccccn3)Cc3ccccn3)nn2)cc1)[C@H]1O[C@H](O)[C@H](O)[C@@H](O)[C@H]1O [Example 101, (2S,3R,4S,5R,6S)—N-(4-(4-((Bis(pyridin-2-ylmethyl)amino)methyl)-1H-1,2,3-triazol-1-yl)phenethyl)-3,4,5,6-tetrahydroxytetrahydro-2H-pyran-2-carboxamide]	100 to 150 µM
